This test has as its target Bax (human (endogenous in HL-60)) (UniProt Q07812). Description: co-IP; Bax immunoprecipitated from HL-60 RIPA lysates with 2 ug anti-Bax antibody (clone 6A7) and protein A-agarose overnight at 4 C; 15% SDS-PAGE and Western blot with anti-Bid antibody; cells untreated or treated with 100 uM H2O2 for 120 min or 1 uM thapsigargin for 60 min. On the technique in general: Immunoblotting shows a protein as a band on a membrane.

Sequences of proteins named here, by UniProt entry; tags and fusion partners are left off.
UniProt Q07812: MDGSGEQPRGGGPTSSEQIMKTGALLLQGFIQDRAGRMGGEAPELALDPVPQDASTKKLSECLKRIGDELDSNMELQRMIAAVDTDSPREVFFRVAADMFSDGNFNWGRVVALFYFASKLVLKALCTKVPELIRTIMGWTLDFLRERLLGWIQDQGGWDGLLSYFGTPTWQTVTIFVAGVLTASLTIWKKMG

Results are given in words; binding and its absence hold for the method and conditions named. Binding seen in cells or lysates may run through a third protein. Some results given as binding are weak or reduced against the parent protein; the word gives no strength.

B1: Bid (protein, UniProt P55957 1-195)
chain: MDCEVNNGSSLRDECITNLLVFGFLQSCSDNSFRRELDALGHELPVLAPQWEGYDELQTDGNRSSHSRLGRIEADSESQEDIIRNIARHLAQVGDSMDRSIPPGLVNGLALQLRNTSRSEEDRNRDLATALEQLLQAYPRDMEKEKTMLVLALLLAKKVASHTPSLLRDVFHTTVNFINQNLRTYVRSLARNGMD
For B1, the binding entry is “binds”.

The record behind these values is article PMC3614781.
